Laboratory results from the supplement of paper PMC10849652.
The other results are listed elsewhere or left out.

Amino acid sequences for entries named in this document (tags omitted). A change or cut given only in a name is not applied to a line headed by its entry.
UniProt Q8NAT1: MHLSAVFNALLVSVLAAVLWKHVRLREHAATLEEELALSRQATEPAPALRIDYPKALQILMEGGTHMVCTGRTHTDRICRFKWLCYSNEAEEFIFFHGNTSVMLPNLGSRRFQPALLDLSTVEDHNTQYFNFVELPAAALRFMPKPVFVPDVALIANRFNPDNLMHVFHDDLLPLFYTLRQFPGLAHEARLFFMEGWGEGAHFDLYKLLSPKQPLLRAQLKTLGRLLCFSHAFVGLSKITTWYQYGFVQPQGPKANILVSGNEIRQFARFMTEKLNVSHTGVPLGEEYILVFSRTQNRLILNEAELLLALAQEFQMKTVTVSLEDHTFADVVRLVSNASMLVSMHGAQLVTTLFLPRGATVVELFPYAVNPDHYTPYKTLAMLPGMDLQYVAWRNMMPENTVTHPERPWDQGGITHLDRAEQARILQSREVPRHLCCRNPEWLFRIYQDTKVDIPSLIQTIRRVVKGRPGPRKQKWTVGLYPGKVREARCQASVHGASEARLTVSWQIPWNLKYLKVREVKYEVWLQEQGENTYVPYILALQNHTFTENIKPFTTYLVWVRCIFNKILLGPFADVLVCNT
UniProt Q9NRY6: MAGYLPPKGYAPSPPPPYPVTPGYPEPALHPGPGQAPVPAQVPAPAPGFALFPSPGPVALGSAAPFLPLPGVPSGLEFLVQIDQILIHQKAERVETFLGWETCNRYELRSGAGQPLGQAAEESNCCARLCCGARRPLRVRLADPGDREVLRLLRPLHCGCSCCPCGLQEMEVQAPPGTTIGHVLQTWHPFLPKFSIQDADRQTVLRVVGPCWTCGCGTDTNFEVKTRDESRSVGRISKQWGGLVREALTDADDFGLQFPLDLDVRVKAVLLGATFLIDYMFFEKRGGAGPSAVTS
UniProt P62937, whole entry, looked up: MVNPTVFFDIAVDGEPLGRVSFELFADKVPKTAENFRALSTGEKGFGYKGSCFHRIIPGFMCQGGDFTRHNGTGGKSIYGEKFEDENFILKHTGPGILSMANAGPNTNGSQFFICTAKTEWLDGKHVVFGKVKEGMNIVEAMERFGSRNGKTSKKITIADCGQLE
UniProt Q8NEY8: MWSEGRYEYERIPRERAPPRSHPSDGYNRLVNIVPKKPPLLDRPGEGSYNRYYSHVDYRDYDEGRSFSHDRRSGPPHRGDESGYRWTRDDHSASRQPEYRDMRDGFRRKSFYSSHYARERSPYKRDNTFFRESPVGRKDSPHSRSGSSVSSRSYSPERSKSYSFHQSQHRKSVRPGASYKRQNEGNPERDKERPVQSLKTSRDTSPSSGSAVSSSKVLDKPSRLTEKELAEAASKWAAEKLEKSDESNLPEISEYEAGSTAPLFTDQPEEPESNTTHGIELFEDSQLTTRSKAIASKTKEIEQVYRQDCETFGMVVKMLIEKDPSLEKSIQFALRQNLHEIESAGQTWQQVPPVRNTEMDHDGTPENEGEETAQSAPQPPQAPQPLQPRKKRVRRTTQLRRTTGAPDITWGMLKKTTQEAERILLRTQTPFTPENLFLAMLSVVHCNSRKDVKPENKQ
UniProt Q86YN6: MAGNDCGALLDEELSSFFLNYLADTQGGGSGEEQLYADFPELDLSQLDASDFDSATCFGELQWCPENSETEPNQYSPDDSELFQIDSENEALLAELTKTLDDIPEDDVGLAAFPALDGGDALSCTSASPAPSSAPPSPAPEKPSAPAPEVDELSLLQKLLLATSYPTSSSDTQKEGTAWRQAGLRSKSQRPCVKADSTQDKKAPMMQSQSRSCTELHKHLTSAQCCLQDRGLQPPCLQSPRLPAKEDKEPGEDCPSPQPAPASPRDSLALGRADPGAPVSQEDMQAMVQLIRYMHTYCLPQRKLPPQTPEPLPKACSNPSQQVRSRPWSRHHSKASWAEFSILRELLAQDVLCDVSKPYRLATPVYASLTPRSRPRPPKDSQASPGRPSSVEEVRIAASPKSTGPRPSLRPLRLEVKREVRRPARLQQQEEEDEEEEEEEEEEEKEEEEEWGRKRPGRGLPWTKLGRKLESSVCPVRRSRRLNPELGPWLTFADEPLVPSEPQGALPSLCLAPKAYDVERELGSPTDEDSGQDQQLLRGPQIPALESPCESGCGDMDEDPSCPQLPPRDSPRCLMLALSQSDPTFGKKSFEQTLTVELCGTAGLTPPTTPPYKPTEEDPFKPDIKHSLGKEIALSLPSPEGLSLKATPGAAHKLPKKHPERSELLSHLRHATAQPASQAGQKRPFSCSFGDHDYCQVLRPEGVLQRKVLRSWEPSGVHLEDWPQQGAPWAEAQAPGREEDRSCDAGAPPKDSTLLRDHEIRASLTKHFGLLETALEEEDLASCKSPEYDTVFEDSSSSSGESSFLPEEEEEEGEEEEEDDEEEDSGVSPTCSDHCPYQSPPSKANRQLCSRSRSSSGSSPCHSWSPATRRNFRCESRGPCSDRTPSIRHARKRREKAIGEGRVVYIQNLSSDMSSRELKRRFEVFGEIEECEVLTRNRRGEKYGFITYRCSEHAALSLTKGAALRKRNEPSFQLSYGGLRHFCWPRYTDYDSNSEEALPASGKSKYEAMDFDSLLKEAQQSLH
UniProt P55058, whole entry, looked up: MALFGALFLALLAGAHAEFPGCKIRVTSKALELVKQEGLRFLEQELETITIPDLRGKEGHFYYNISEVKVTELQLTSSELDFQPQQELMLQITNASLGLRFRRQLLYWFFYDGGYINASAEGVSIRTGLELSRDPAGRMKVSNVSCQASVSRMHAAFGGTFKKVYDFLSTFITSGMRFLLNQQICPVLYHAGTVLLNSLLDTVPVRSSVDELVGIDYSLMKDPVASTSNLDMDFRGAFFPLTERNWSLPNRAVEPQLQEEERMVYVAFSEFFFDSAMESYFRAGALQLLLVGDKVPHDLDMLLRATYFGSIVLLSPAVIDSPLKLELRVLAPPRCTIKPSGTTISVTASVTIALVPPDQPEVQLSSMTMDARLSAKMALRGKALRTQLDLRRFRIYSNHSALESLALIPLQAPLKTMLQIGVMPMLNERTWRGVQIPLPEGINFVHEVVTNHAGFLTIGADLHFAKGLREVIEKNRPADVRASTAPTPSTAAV
UniProt P41247: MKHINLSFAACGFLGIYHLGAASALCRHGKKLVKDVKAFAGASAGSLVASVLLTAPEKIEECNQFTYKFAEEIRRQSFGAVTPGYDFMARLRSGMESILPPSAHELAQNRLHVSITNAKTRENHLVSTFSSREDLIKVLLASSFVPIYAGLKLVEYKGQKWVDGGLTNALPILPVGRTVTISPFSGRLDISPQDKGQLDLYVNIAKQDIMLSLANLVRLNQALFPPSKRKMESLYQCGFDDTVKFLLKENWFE
UniProt Q9HCU8: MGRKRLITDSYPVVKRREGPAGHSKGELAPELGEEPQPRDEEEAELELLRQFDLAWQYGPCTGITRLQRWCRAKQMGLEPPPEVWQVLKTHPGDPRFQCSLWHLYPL

Tests used:
Assay in all cases: log2 fold change, soluble protein after heating vs DMSO (PISA); higher = thermal stabilisation; K562 lysate, 10 uM; active = over 0.2 and 3.5 SD of the protein, either way, in both replicates (recomputed)
[1] = compound: C#Cc1cccc(Nc2ncnc3cc(OCCOC)c(OCCOC)cc23)c1 [erlotinib]
Method in brief: (§1)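 K562 pellets were dounce-homogenised in PBS pH 7.4 with 1 mM MgCl2, and the crude extract at 1 mg/mL protein was treated with 10 μM compound for 30 min. Aliquots were heated for 3 min across 48°C-58°C, pooled, and brought to 0.5% NP-40 at 4°C; soluble protein was the supernatant after 21,000xg for 90 min. Soluble protein was quantified by TMTpro 16plex LC-MS/MS with channel sums equalised, and reported as log2 fold change in thermal stability against DMSO controls, with values from duplicates.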

[2] = compound: C/C(=N\NC(=O)C1=CC(=CC=C1)S(=O)(=O)N2CCOCC2)/C3=C(C=CC(=C3)Cl)O
Method in brief: as §1

[3] = compound: C1=CC(=CC=C1C2=NC3=C(N2)C=C(C=C3)C(=O)N)OC4=CC=C(C=C4)Cl
Method in brief: as §1

[4] = compound: C1=CC2=C(C=CC(=C2)/C=C\3/C(=O)NC(=NCC4=CC=CS4)S3)N=C1
Method in brief: as §1

[5] = compound: C1=CC=C(C=C1)C2=NC(=C(N2)C3=CC=NC=C3)C4=CC(=C(C=C4)Cl)O
Method in brief: as §1

[6] = compound: C1=CC=C2C(=C1)C3=NNC4=CC=CC(=C43)C2=O
Method in brief: as §1

[7] = compound: C1CCN(C1)C(=O)NC2=CC=CC(=C2)NC3=NC=C(C(=N3)NCCC4=CN=CN4)Br
Method in brief: as §1

[8] = compound: C1CN(CCC1(CC2=CC=C(C=C2)Cl)N)C3=NC=NC4=C3C=CN4
Method in brief: as §1

[9] = compound: C1COCCN1CCN2C3=CC=CC=C3N=C2NC(=O)C4=CC(=CC=C4)[N+](=O)[O-] [IRAK-1-4 Inhibitor I]
Method in brief: as §1

[10] = compound: CC(=O)c1cnc2ccc(-c3cc(Cl)c(O)c(Cl)c3)nc2c1N[C@H]1CC[C@H](CN(C)C)CC1
Method in brief: as §1

[11] = compound: CC(C)(C)Cn1c(N)nc2ccc(-c3[nH]c(C(C)(C)C)nc3-c3ccc(F)cc3)nc21 [ralimetinib]
Method in brief: as §1

[12] = compound: CC(C)(O)CC(=O)NCCn1ccc2ncnc(Nc3ccc(Oc4cccc(C(F)(F)F)c4)c(Cl)c3)c21
Method in brief: as §1

[13] = compound: CC(C)C1=C2N=C(C=C(N2N=C1)NCC3=CC=CC=C3)NCCCCCCN
Method in brief: as §1

[14] = compound: CC1=C(C(CC(=O)N1)C2=CC=C(C=C2)C(F)(F)F)C(=O)NC3=C(C=C4C(=C3)C=NN4)F
Method in brief: as §1

[15] = compound: CC1=C(C2=C(C=C1)C(=O)C3=CC=CC=C3N2CCCN)C
Method in brief: as §1

[16] = compound: CC1=C(C=C(C=C1)NC(=O)C2=CC(=CC=C2)C(C)(C)C#N)NC3=CC4=C(C=C3)N=CN(C4=O)C
Method in brief: as §1

[17] = compound: CC1=C(C=C(C=C1)NC(=O)C2=CC(=CC=C2)N(C)C)NC(=O)C3=CC=C(C=C3)O
Method in brief: as §1

[18] = compound: CC1=CC=C(C=C1)SC2=C3C=C(SC3=CN=C2)C(=O)N
Method in brief: as §1

[19] = compound: C1=CC2=NC=CN=C2C=C1/C=C/3\C(=O)NC(=O)S3
Method in brief: as §1

[20] = compound: C=CC(=O)N1CCC[C@@H](n2nc(-c3ccc(Oc4ccccc4)cc3)c3c(N)ncnc32)C1 [ibrutinib]
Method in brief: as §1

Measured: log2 fold change

POMGNT2 (UniProt Q8NAT1)
inactive: [1] 0.007 | [2] -0.109 | [3] 0.013 | [4] -0.102 | [5] -0.023 | [6] -0.136 | [7] -0.098 | [8] 0.046 | [9] -0.013 | [10] 0.059 | [11] 0.025 | [12] -0.04 | [13] -0.047 | [14] 0.083 | [15] -0.004 | [16] 0.1 | [17] 0.007 | [18] -0.017

PLSCR3 (UniProt Q9NRY6)
inactive: [2] -0.048 | [4] -0.189 | [6] 0.149 | [7] -0.126 | [8] 0.25 | [10] -0.01 | [15] -0.139 | [16] -0.061 | [18] 0.014

PPIA isoform 2 (UniProt P62937)
inactive: [19] -0.024 | [20] 0.015 | [14] -0.068

POLG2 (UniProt J3KRM2)
inactive: [1] 0.083 | [3] 0.131 | [19] -0.174 | [20] 0.024 | [10] -0.052 | [13] -0.061 | [14] -0.197 | [18] -0.21

PPHLN1 isoform 3 (UniProt Q8NEY8)
inactive: [2] -0.016 | [4] 0.146 | [5] 0.148 | [6] -0.195 | [9] -0.003 | [11] 0.05 | [12] -0.099 | [17] 0.025

PPARGC1B (UniProt Q86YN6)
inactive: [1] -0.032 | [3] 0.078 | [5] 0.01 | [9] -0.013 | [11] 0.089 | [12] -0.016 | [13] 0.06 | [17] 0.079

PLTP (UniProt P55058)
inactive: [1] 0.083 | [2] 0.004 | [3] -0.038 | [4] -0.101 | [5] 0.04 | [6] -0.069 | [9] -0.018 | [11] -0.059 | [12] -0.062 | [13] 0.172 | [14] 0.688 | [15] -0.019 | [17] 0.031

PNPLA4 (UniProt P41247)
inactive: [2] 0.064 | [4] 0.1 | [5] 0.051 | [6] 0.1 | [7] 0.086 | [8] 0.09 | [9] -0.001 | [11] 0.14 | [12] -0.099 | [15] -0.116 | [16] -0.052 | [17] 0.046

POLD4 (UniProt Q9HCU8)
inactive: [1] 0.033 | [2] 0.043 | [3] 0.003 | [4] 0.028 | [5] 0.025 | [6] 0.018 | [7] -0.007 | [8] -0.012 | [9] 0.07 | [10] -0.096 | [11] 0.022 | [12] -0.148 | [13] 0.059 | [14] -0.114 | [15] 0.012 | [16] 0.091 | [17] -0.01 | [18] 0.01
